These are yes or no findings as the source states them, for the method shown. Binding seen in cells or lysates may run through a third protein. Some binding calls cover weakened binding; strength is not graded here. Where a sequence is shown, tags or fusion partners need not be part of it.
Molecular target: T1, interferon regulatory factor 7 (IRF7), Flag-tagged (UniProt P70434)
T1 sequence: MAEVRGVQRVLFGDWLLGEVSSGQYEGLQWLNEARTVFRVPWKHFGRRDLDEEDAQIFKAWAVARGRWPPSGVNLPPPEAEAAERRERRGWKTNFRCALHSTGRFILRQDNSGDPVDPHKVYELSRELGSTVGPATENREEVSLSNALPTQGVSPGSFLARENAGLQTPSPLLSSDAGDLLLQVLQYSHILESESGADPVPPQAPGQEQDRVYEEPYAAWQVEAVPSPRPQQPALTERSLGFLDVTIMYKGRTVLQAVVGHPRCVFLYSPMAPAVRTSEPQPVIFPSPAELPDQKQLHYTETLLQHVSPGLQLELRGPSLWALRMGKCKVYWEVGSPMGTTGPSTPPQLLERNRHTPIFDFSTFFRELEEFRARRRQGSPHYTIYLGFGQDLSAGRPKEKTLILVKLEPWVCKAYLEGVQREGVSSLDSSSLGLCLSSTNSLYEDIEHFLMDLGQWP
Assay: co-IP

- binding: binds
B1: tripartite-motif protein 21 (TRIM21), HA-tagged (protein, UniProt Q62191 1-470)
chain: MSPSTTSKMSLEKMWEEVTCSICLDPMVEPMSIECGHCFCKECIFEVGKNGGSSCPECRQQFLLRNLRPNRHIANMVENLKQIAQNTKKSTQETHCMKHGEKLHLFCEEDGQALCWVCAQSGKHRDHTRVPIEEAAKVYQEKIHVVLEKLRKGKELAEKMEMDLTMQRTDWKRNIDTQKSRIHAEFALQNSLLAQEEQRQLQRLEKDQREYLRLLGKKEAELAEKNQALQELISELERRIRGSELELLQEVRIILERSGSWNLDTLDIDAPDLTSTCPVPGRKKMLRTCWVHITLDRNTANSWLIISKDRRQVRMGDTHQNVSDNKERFSNYPMVLGAQRFSSGKMYWEVDVTQKEAWDLGVCRDSVQRKGQFSLSPENGFWTIWLWQDSYEAGTSPQTTLHIQVPPCQIGIFVDYEAGVVSFYNITDHGSLIYTFSECVFAGPLRPFFNVGFNYSGGNAAPLKLCPLKM
